Results are given in words; binding and its absence hold for the method and conditions named. Binding seen in cells or lysates may run through a third protein. Some binding calls cover weakened binding; strength is not graded here.
T1: G protein-coupled receptor 120 (mouse (endogenous in Kupffer cell line BNCC340733)) (UniProt Q7TMA4)
T1 sequence: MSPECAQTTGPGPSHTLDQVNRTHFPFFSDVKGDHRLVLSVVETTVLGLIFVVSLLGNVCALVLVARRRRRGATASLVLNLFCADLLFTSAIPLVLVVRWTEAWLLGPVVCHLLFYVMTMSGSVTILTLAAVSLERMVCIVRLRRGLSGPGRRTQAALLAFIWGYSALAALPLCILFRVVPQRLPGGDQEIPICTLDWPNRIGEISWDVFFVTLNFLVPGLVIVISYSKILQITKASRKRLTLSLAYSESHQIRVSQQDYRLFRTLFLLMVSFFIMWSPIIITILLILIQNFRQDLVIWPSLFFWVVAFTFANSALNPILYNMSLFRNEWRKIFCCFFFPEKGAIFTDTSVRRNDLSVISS

By UniProt entry, the sequences of proteins in these tests, tags left out.
UniProt Q8R4B8: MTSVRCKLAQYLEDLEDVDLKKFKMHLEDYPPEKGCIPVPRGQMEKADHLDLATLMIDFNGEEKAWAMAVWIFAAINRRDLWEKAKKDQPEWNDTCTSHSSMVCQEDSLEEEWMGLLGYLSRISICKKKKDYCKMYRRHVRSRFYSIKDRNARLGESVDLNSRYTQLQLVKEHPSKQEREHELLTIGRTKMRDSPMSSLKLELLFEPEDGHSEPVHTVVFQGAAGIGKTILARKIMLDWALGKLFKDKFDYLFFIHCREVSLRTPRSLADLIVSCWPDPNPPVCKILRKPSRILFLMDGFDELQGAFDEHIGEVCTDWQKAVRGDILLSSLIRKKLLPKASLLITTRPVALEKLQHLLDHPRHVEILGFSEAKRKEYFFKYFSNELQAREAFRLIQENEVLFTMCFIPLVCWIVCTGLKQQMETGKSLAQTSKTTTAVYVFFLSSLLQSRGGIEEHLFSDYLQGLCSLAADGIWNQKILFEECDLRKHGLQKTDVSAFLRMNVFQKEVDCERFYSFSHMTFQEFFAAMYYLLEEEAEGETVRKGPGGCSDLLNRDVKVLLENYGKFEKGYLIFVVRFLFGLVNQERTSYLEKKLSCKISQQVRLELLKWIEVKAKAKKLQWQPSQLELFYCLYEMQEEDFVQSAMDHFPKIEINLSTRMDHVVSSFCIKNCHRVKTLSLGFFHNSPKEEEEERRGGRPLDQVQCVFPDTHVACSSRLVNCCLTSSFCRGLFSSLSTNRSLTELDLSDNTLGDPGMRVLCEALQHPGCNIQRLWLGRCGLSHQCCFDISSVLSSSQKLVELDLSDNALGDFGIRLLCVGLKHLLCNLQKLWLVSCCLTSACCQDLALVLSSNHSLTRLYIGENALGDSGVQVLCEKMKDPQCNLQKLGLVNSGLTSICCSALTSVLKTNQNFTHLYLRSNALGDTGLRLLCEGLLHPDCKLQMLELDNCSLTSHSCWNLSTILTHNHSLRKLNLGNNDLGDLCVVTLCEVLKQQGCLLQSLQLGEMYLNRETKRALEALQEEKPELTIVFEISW


How the values were obtained:
[1] = target: T1, G protein-coupled receptor 120 (mouse (endogenous in Kupffer cell line BNCC340733)); assay: co-IP; lysates of Kupffer cells pretreated with 50 uM DHA/AA for 4 h, then 100 ng/mL LPS for 12 h; immunoprecipitated with GPR120 antibody or NLRP3 antibody on protein A/G plus agarose; western blot for GPR120, NLRP3 and caspase-1
[2] = target: NOD-like receptor pyrin domain-containing protein 3 (mouse (endogenous in Kupffer cell line BNCC340733)) (UniProt Q8R4B8); assay: as above

| binding [1] | binding [2] | Molecule |
| --- | --- | --- |
| binds | – | NOD-like receptor pyrin domain-containing protein 3 (from UniProt Q8R4B8 1-1033) |
| – | binds | caspase-1 (enzyme, UniProt P29452 1-402) MADKILRAKRKQFINSVSIGTINGLLDELLEKRVLNQEEMDKIKLANITAMDKARDLCDHVSKKGPQASQIFITYICNEDCYLAGILELQSAPSAETFVATEDSKGGHPSSSETKEEQNKEDGTFPGLTGTLKFCPLEKAQKLWKENPSEIYPIMNTTTRTRLALIICNTEFQHLSPRVGAQVDLREMKLLLEDLGYTVKVKENLTALEMVKEVKEFAACPEHKTSDSTFLVFMSHGIQEGICGTTYSNEVSDILKVDTIFQMMNTLKCPSLKDKPKVIIIQACRGEKQGVVLLKDSVRDSEEDFLTDAIFEDDGIKKAHIEKDFIAFCSSTPDNVSWRHPVRGSLFIESLIKHMKEYAWSCDLEDIFRKVRFSFEQPEFRLQMPTADRVTLTKRFYLFPGH |

— publication PMC7803970
